Data reported in the supplement of paper PMC12067093, “Discovery and optimisation of a covalent ligand for TRIM25 and its application to targeted protein ubiquitination” (Chemical Science, 2025).
This is one part of the list.

The chains behind the UniProt entries cited, without tags or fusion partners. Where a name states a change or a piece, a line headed by the entry shows the natural chain unless it says otherwise.
UniProt P46063: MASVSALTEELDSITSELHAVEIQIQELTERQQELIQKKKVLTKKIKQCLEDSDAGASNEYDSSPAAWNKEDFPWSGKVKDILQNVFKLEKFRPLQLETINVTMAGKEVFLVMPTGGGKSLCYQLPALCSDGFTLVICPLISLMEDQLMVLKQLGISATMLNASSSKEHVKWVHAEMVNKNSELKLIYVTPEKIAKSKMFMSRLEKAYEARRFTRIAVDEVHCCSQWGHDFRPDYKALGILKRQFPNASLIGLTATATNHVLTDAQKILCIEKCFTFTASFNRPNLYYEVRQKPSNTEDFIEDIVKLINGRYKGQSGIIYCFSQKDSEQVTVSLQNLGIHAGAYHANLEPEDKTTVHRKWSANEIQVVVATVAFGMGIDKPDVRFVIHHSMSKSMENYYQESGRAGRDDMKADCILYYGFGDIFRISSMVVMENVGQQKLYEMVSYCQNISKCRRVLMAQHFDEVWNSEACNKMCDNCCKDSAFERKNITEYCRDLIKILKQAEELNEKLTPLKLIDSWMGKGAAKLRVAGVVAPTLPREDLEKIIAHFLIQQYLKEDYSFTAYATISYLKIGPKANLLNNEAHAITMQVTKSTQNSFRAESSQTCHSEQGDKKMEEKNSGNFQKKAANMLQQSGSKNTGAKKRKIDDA
UniProt Q9NPQ8: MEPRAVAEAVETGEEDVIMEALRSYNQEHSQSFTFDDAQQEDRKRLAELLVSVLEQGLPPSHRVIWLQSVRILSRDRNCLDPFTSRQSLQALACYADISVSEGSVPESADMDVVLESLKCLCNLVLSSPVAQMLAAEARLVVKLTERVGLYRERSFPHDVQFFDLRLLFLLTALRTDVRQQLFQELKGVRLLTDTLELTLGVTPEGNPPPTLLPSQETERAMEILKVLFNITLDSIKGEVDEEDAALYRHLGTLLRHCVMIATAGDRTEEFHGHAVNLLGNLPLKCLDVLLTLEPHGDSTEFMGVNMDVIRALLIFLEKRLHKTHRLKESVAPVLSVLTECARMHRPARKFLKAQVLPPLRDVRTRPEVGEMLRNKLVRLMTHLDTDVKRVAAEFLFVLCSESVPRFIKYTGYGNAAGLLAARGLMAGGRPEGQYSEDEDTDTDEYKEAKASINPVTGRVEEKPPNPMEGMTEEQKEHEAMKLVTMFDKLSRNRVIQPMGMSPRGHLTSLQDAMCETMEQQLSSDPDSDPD
UniProt O75792: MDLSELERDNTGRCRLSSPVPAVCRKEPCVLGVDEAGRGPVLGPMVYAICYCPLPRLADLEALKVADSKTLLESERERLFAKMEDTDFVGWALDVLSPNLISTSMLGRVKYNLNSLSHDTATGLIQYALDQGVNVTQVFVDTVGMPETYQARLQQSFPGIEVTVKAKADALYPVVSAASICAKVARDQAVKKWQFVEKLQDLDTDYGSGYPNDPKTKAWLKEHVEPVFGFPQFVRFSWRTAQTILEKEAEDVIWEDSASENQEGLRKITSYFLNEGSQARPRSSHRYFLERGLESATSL
UniProt Q5UIP0: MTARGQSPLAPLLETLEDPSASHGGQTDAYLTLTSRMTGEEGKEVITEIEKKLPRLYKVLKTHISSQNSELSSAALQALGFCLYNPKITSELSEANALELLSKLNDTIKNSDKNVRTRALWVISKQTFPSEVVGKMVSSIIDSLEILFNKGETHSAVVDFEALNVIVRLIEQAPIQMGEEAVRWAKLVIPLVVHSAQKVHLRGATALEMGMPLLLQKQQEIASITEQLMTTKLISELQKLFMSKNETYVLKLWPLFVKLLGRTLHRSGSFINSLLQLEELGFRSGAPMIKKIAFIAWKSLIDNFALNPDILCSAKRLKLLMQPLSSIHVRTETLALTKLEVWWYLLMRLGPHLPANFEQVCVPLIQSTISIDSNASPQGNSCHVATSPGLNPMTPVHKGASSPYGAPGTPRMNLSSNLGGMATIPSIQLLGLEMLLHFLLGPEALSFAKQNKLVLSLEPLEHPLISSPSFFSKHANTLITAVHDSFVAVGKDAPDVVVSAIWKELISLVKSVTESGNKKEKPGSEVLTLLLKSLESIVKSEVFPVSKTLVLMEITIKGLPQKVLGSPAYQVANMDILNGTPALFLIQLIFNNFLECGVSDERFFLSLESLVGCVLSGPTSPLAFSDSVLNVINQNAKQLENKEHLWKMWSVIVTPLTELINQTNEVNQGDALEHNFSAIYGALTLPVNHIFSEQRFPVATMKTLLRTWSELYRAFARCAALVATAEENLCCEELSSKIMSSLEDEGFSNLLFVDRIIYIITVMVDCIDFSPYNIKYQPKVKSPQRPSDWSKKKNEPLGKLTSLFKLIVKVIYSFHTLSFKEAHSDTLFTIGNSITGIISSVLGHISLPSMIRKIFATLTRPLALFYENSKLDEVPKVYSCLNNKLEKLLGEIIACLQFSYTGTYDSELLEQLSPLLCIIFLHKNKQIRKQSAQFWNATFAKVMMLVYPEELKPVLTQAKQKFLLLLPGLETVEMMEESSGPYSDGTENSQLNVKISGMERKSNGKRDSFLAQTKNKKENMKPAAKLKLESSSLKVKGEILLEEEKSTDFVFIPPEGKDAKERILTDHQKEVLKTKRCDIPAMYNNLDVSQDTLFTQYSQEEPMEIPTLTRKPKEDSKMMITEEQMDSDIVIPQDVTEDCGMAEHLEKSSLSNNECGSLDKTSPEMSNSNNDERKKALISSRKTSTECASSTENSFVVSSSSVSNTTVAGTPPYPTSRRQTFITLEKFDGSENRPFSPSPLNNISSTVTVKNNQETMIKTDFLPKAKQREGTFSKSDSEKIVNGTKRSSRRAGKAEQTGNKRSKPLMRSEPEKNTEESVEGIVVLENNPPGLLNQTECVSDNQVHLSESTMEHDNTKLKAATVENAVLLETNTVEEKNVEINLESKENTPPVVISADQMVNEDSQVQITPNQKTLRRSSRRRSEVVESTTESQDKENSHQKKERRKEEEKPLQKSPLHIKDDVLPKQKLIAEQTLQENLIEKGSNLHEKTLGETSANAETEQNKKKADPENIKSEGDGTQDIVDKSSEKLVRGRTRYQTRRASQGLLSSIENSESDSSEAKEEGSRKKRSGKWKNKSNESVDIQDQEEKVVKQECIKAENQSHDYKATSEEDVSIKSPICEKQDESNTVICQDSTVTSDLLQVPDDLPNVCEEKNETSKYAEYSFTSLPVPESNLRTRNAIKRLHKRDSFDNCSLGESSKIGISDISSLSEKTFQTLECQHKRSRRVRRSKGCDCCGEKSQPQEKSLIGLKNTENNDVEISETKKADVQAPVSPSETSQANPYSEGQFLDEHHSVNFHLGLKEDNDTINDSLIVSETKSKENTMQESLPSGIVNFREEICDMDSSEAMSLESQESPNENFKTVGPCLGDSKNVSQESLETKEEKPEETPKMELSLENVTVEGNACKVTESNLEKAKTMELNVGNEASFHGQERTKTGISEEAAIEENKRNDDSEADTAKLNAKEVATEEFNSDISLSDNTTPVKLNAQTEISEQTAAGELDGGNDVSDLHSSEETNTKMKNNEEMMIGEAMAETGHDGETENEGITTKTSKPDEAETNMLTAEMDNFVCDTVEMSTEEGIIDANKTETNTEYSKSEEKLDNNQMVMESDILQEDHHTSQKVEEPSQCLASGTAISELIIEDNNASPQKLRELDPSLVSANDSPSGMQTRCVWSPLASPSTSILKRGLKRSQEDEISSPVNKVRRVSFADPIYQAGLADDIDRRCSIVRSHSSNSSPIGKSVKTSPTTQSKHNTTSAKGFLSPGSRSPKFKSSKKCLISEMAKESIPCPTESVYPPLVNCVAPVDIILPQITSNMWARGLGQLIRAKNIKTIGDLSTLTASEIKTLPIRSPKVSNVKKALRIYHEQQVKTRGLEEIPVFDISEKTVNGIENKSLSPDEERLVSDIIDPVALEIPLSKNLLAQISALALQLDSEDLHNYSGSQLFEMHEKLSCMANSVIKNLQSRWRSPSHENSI
UniProt P51606: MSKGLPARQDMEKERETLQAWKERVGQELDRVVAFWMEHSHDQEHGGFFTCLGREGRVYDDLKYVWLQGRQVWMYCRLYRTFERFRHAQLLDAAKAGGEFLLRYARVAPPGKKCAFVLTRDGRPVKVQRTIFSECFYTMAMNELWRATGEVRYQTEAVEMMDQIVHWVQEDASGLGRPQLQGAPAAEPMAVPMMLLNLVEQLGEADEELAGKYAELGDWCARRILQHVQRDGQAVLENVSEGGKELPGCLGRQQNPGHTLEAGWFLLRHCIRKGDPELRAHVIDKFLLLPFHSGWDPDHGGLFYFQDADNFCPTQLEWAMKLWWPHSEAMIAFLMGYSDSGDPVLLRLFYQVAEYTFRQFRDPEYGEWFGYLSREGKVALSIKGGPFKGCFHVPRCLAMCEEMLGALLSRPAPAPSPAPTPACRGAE
UniProt Q13129: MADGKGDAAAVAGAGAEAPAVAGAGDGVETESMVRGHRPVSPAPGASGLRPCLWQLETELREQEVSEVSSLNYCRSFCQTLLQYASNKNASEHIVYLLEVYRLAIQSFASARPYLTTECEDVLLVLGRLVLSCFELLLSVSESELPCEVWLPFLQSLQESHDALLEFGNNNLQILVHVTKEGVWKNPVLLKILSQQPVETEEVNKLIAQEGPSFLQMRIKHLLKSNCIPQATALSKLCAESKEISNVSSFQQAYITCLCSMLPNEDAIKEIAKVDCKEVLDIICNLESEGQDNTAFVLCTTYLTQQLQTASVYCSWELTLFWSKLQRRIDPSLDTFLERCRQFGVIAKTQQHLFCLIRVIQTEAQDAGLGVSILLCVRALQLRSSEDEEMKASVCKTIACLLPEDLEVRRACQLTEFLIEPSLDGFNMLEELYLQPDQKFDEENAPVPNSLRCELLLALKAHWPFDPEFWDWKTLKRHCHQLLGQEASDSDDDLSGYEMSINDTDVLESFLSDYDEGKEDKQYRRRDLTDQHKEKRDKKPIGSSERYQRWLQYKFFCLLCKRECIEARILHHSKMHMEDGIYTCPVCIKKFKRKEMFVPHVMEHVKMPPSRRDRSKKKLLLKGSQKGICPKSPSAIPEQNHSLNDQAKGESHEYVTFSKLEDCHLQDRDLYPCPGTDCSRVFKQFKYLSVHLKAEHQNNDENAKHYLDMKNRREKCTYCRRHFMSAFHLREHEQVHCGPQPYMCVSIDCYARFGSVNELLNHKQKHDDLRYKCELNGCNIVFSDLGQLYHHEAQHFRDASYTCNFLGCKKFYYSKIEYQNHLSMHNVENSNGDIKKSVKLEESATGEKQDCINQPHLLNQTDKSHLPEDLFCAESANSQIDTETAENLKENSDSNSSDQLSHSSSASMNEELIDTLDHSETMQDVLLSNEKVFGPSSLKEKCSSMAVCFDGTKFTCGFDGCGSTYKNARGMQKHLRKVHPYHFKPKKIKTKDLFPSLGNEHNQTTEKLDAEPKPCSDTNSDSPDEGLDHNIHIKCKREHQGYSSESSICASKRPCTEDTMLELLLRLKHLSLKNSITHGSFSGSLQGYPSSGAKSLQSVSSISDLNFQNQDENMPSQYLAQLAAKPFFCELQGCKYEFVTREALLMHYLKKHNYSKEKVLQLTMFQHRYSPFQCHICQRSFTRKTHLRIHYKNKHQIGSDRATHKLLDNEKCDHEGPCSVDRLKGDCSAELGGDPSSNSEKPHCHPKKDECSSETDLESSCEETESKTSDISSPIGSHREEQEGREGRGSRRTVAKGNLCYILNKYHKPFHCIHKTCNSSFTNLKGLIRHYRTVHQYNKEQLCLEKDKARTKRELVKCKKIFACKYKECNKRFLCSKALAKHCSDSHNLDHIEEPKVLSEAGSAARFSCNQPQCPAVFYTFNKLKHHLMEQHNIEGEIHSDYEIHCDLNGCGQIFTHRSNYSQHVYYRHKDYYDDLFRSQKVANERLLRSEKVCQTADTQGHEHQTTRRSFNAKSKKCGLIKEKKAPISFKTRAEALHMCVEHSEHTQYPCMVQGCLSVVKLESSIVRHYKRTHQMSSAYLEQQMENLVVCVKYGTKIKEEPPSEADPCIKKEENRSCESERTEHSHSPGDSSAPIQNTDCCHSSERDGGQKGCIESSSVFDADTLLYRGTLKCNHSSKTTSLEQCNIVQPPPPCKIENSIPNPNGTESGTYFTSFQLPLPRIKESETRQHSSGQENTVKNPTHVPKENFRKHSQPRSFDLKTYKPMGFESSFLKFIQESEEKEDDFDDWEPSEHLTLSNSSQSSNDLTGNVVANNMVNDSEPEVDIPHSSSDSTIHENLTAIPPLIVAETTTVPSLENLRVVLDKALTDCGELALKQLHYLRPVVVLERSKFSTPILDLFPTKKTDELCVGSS
UniProt Q9Y508: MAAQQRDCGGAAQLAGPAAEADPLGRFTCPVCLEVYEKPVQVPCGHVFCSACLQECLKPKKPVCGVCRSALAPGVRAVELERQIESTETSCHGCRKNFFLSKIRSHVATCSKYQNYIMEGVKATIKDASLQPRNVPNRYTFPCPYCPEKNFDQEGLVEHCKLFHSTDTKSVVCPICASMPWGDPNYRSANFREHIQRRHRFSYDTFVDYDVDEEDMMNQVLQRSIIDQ

Compound: Cc1cc(ccc1-c1ccccc1)C(=O)N1CCCN(CC1)C(=O)CCl [compound 10]
Assay: probe-labelled cysteine peptide fold change vs DMSO (competition) (log2 fold change); higher = less target engagement (more negative = stronger competition)
Conditions: THP-1, incubation time: 4 h
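Note: competitive profiling in live THP-1 cells: cysteine peptides tagged with an iodoacetamide desthiobiotin (IA-DTB) probe, intensity after compound treatment relative to DMSO-treated cells.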

In the case of RET_P07949_987_LMLQCWK (UniProt P07949), the “probe-labelled cysteine peptide fold change” value (10 µM) is reported as 0.0807 and the “probe-labelled cysteine peptide fold change” value (50 µM) is reported as 0.122.

“RECQL_P46063_224_IAVDEVHCCSQWGHDFRPDYK (UniProt P46063)” was tested, and the “probe-labelled cysteine peptide fold change” value (10 µM) was 0.0898 and the “probe-labelled cysteine peptide fold change” value (50 µM) was 0.00529.

In the case of “RIC8A_Q9NPQ8_79_DRNCLDPFTSR (UniProt Q9NPQ8)”, the “probe-labelled cysteine peptide fold change” value (10 µM) is reported as -0.104 and the “probe-labelled cysteine peptide fold change” value (50 µM) is reported as 0.057.

In the case of “RNASEH2A_O75792_24_LSSPVPAVCR (UniProt O75792)”, the “probe-labelled cysteine peptide fold change” value (10 µM) is reported as 0.0827 and the “probe-labelled cysteine peptide fold change” value (50 µM) is reported as -0.112.

“RGN_Q15493_262_NYSEMYVTCAR (UniProt Q15493)” was tested, and the “probe-labelled cysteine peptide fold change” value (10 µM) was -0.121 and the “probe-labelled cysteine peptide fold change” value (50 µM) was -0.384.

With “RFC3_P40938_165_LILCCNSTSK (UniProt P40938)” the “probe-labelled cysteine peptide fold change” value (10 µM) was -0.142 and the “probe-labelled cysteine peptide fold change” value (50 µM) was 0.0949.

“REXO4_Q9GZR2_248_ALALDCEMVGVGPK (UniProt Q9GZR2)” was tested, and the “probe-labelled cysteine peptide fold change” value (10 µM) was 0.102 and the “probe-labelled cysteine peptide fold change” value (50 µM) was 0.186.

“RIF1_Q5UIP0_2450_LSCMANSVIK (UniProt Q5UIP0)” was tested, and the “probe-labelled cysteine peptide fold change” value (10 µM) was -0.0942 and the “probe-labelled cysteine peptide fold change” value (50 µM) was -0.14.

With “RENBP_P51606_396_CLAMCEEMLGALLSR (UniProt P51606)” the “probe-labelled cysteine peptide fold change” value (10 µM) was 0.0603 and the “probe-labelled cysteine peptide fold change” value (50 µM) was 0.188.

For “RIC1_Q4ADV7_818_EQLEVLFPFCVVER (UniProt Q4ADV7)”, the “probe-labelled cysteine peptide fold change” value (10 µM) was 0.144 and the “probe-labelled cysteine peptide fold change” value (50 µM) was 0.113.

With “RLF_Q13129_961_FTCGFDGCGSTYK (UniProt Q13129)” the “probe-labelled cysteine peptide fold change” value (10 µM) was -0.214 and the “probe-labelled cysteine peptide fold change” value (50 µM) was -0.391.

“RFWD3_Q6PCD5_315_CISTWLK (UniProt Q6PCD5)” was tested, and the “probe-labelled cysteine peptide fold change” value (10 µM) was -0.162 and the “probe-labelled cysteine peptide fold change” value (50 µM) was -0.47.

In the case of “RFTN1_Q14699_551_ALVGICTGHSNPGEDAR (UniProt Q14699)”, the “probe-labelled cysteine peptide fold change” value (10 µM) is reported as -0.38 and the “probe-labelled cysteine peptide fold change” value (50 µM) is reported as -0.283.

In the case of “RGS14_O43566_183_ECLLAEAEGRPLREPGSSR (UniProt O43566)”, the “probe-labelled cysteine peptide fold change” value (10 µM) is reported as -0.067 and the “probe-labelled cysteine peptide fold change” value (50 µM) is reported as 0.0115.

“REPIN1_Q9BWE0_167_CHPPAPEAR (UniProt Q9BWE0)” was tested, and the “probe-labelled cysteine peptide fold change” value (10 µM) was 0.0487 and the “probe-labelled cysteine peptide fold change” value (50 µM) was 0.161.

For “RNASEL_Q05823_576_DCLSDLLGHPFFWTWESR (UniProt Q05823)”, the “probe-labelled cysteine peptide fold change” value (10 µM) was 0.337 and the “probe-labelled cysteine peptide fold change” value (50 µM) was 0.0397.

With “RNASEH2A_O75792_29_EPCVLGVDEAGR (UniProt O75792)” the “probe-labelled cysteine peptide fold change” value (10 µM) was -0.0446 and the “probe-labelled cysteine peptide fold change” value (50 µM) was 0.0343.

For “RHOT1_Q8IXI2_522_IPCLIVAAK (UniProt Q8IXI2)”, the “probe-labelled cysteine peptide fold change” value (10 µM) was 0.16 and the “probe-labelled cysteine peptide fold change” value (50 µM) was 0.193.

“RETSAT_Q6NUM9_547_LHPCVMASLR (UniProt Q6NUM9)” was tested, and the “probe-labelled cysteine peptide fold change” value (10 µM) was -0.356 and the “probe-labelled cysteine peptide fold change” value (50 µM) was -0.379.

For “RIC8A_Q9NPQ8_120_CLCNLVLSSPVAQMLAAEAR (UniProt Q9NPQ8)”, the “probe-labelled cysteine peptide fold change” value (10 µM) was 0.0787 and the “probe-labelled cysteine peptide fold change” value (50 µM) was -0.0343.

In the case of “RINL_Q6ZS11_421_LAHLHAACAPR (UniProt Q6ZS11)”, the “probe-labelled cysteine peptide fold change” value (10 µM) is reported as 0.0462 and the “probe-labelled cysteine peptide fold change” value (50 µM) is reported as 0.0735.

In the case of “RIOX1_Q9H6W3_584_CLEIYPQQADAMELLLGSYPEFVR (UniProt Q9H6W3)”, the “probe-labelled cysteine peptide fold change” value (10 µM) is reported as 0.184 and the “probe-labelled cysteine peptide fold change” value (50 µM) is reported as 0.489.

In the case of “RNF114_Q9Y508_56_PVQVPCGHVFCSACLQECLKPK (UniProt Q9Y508)”, the “probe-labelled cysteine peptide fold change” value (10 µM) is reported as 0.184 and the “probe-labelled cysteine peptide fold change” value (50 µM) is reported as 0.0867.

“RLF_Q13129_749_EHEQVHCGPQPYMCVSIDCYAR (UniProt Q13129)” was tested, and the “probe-labelled cysteine peptide fold change” value (10 µM) was 0.00348 and the “probe-labelled cysteine peptide fold change” value (50 µM) was -0.111.

“RNF114_Q9Y508_8_DCGGAAQLAGPAAEADPLGR (UniProt Q9Y508)” was tested, and the “probe-labelled cysteine peptide fold change” value (10 µM) was -0.000646 and the “probe-labelled cysteine peptide fold change” value (50 µM) was 0.024.

With “RECQL_P46063_414_DDMKADCILYYGFGDIFR (UniProt P46063)” the “probe-labelled cysteine peptide fold change” value (10 µM) was -0.106 and the “probe-labelled cysteine peptide fold change” value (50 µM) was -0.431.

“RLF_Q13129_584+587_MHMEDGIYTCPVCIK (UniProt Q13129)” was tested, and the “probe-labelled cysteine peptide fold change” value (10 µM) was 0.00862 and the “probe-labelled cysteine peptide fold change” value (50 µM) was -0.342.

“RENBP_P51606_76_QVWMYCR (UniProt P51606)” was tested, and the “probe-labelled cysteine peptide fold change” value (10 µM) was 0.076 and the “probe-labelled cysteine peptide fold change” value (50 µM) was 0.168.

With “RFC3_P40938_193+200_VPAPSIEDICHVLSTVCK (UniProt P40938)” the “probe-labelled cysteine peptide fold change” value (10 µM) was 0.312 and the “probe-labelled cysteine peptide fold change” value (50 µM) was -0.0582.

“RIF1_Q5UIP0_1155_SSLSNNECGSLDK (UniProt Q5UIP0)” was tested, and the “probe-labelled cysteine peptide fold change” value (10 µM) was -0.539 and the “probe-labelled cysteine peptide fold change” value (50 µM) was -0.295.

In the case of “RLF_Q13129_1055_RPCTEDTMLELLLR (UniProt Q13129)”, the “probe-labelled cysteine peptide fold change” value (10 µM) is reported as -0.148 and the “probe-labelled cysteine peptide fold change” value (50 µM) is reported as -0.28.

With “RIOX1_Q9H6W3_294_ALPAAAWSLYQAGCSLR (UniProt Q9H6W3)” the “probe-labelled cysteine peptide fold change” value (10 µM) was 0.126 and the “probe-labelled cysteine peptide fold change” value (50 µM) was 0.237.

With “RING1_Q06587_69_FCSDCIVTALR (UniProt Q06587)” the “probe-labelled cysteine peptide fold change” value (10 µM) was 0.0116 and the “probe-labelled cysteine peptide fold change” value (50 µM) was 0.199.

With “RNF114_Q9Y508_110_SHVATCSK (UniProt Q9Y508)” the “probe-labelled cysteine peptide fold change” value (10 µM) was 0.137 and the “probe-labelled cysteine peptide fold change” value (50 µM) was 0.0845.

For “REPIN1_Q9BWE0_433_VHSGERPFACEECGR (UniProt Q9BWE0)”, the “probe-labelled cysteine peptide fold change” value (10 µM) was 0.213 and the “probe-labelled cysteine peptide fold change” value (50 µM) was 0.226.

“RNASEH2C_Q8TDP1_34_DAVPATLHLLPCEVAVDGPAPVGR (UniProt Q8TDP1)” was tested, and the “probe-labelled cysteine peptide fold change” value (10 µM) was -0.0237 and the “probe-labelled cysteine peptide fold change” value (50 µM) was -0.113.

In the case of “RNF149_Q8NC42_295_ICIDPWLLDHR (UniProt Q8NC42)”, the “probe-labelled cysteine peptide fold change” value (10 µM) is reported as -0.125 and the “probe-labelled cysteine peptide fold change” value (50 µM) is reported as -0.168.

In the case of “RELCH_Q9P260_548_REELIPLILCTACLHPEPK (UniProt Q9P260)”, the “probe-labelled cysteine peptide fold change” value (10 µM) is reported as 0.223 and the “probe-labelled cysteine peptide fold change” value (50 µM) is reported as 0.121.

In the case of “RHOT1_Q8IXI2_216_ICFNTPLAPQALEDVK (UniProt Q8IXI2)”, the “probe-labelled cysteine peptide fold change” value (10 µM) is reported as 0.287 and the “probe-labelled cysteine peptide fold change” value (50 µM) is reported as 0.649.
